32 compounds from the supplement of paper PMC11348887 can be followed below.

Structures can show the parent of a compound that is named as a salt. The list shows a part of the results. Most entries show no effect beyond the scatter of the controls.

The experiment deals with hPSC-derived cortical neurons (WA09). The experiment in a line: KCl-induced FOS+/EGR-1+ double-positive nuclei fraction z-score (KCl minus unstimulated); higher = stronger activity-induced IEG response. As to conditions: 5 µM; treatment: days 7-14 after plating, readout day 21.
For the compound `CCOC(=O)C1=C(C)NC(C)=C(C(=O)OC)C1c1cccc([N+](=O)[O-])c1` (configuration not stated) [Nitrendipine], the “KCl-induced FOS+/EGR-1+ double-positive nuclei fraction z-score” value was -0.404.
Next, `C[C@H](Cn1cnc2c(N)ncnc21)OCP(=O)(O)O` [Tenofovir]: 0.0925; `C=C1CC[C@H](O)C/C1=C/C=C1\CCC[C@]2(C)[C@@H]([C@H](C)CCCC(C)C)CC[C@@H]12` [Vitamin D3]: -1.93; `CCCCC(=O)O[C@H]1CC[C@H]2[C@@H]3CCc4cc(O)ccc4[C@H]3CC[C@]12C` [Estradiol valerate]: 0.268.
As for `O=C(O)c1ccc(-c2c[nH]c3ncc(-c4ccccc4)cc23)cc1C1CCCC1`, the “KCl-induced FOS+/EGR-1+ double-positive nuclei fraction z-score” value worked out at 1.81.
As for `COc1cc([C@@H]2c3cc4c(cc3[C@@H](O[C@@H]3O[C@@H]5CO[C@@H](C)O[C@H]5[C@H](O)[C@H]3O)[C@H]3COC(=O)[C@H]23)OCO4)cc(OC)c1O` [Etoposide], the “KCl-induced FOS+/EGR-1+ double-positive nuclei fraction z-score” value came out at 0.359.
Consider `Cc1cc(N2CCOCC2)cc2[nH]c(-c3c(NC[C@@H](O)c4cccc(Cl)c4)cc[nH]c3=O)nc12`, for which the “KCl-induced FOS+/EGR-1+ double-positive nuclei fraction z-score” value is -0.558.
In the case of `CC(=O)OCC(=O)[C@@]1(O)CC[C@H]2[C@@H]3CCC4=CC(=O)C=C[C@]4(C)[C@H]3[C@@H](O)C[C@@]21C` [Prednisolone Acetate] it was -0.454.
Next, `Cc1cc(Nc2nc(N[C@@H](C)c3ccc(F)cc3)c(C#N)cc2F)n[nH]1`: -0.233; `NC(=O)NO` [Hydroxyurea]: 0.127.
In the case of `Cc1onc(-c2ccccc2)c1-c1ccc(S(N)(=O)=O)cc1` [Valdecoxib] it was 1.03.
As for `O=C(O)/C=C/c1ccc(O)c(O)c1` [Caffeic Acid], the “KCl-induced FOS+/EGR-1+ double-positive nuclei fraction z-score” value came out at 0.185.
In the case of `CC[C@]1(O)C[C@@H]2CN(CCc3c([nH]c4ccccc34)[C@@](C(=O)OC)(c3cc4c(cc3OC)N(C)[C@H]3[C@@](O)(C(=O)OC)[C@H](OC(C)=O)[C@]5(CC)C=CCN6CC[C@]43[C@@H]65)C2)C1` [Vinblastine sulfate] it was -0.721; in that of `CC1(C)CC(=O)c2c(C(F)(F)F)nn(-c3ccc(C(N)=O)c(N[C@H]4CC[C@H](O)CC4)c3)c2C1`, 0.251.
In the case of `CCN(Cc1ccncc1)C(=O)C(CO)c1ccccc1` (configuration not stated) [Tropicamide] it was 0.43; in that of `COc1cc2nc(N3CCCN(C)CC3)nc(NC3CCN(Cc4ccccc4)CC3)c2cc1OC`, -0.35.
Next, `c1ccc(CNc2ncnc3[nH]cnc23)cc1` [6-Benzylaminopurine]: 0.446; `CN(C)[C@@H]1C(O)=C(C(N)=O)C(=O)[C@@]2(O)C(O)=C3C(=O)c4c(O)ccc(Cl)c4[C@@H](O)[C@H]3C[C@@H]12` [Demeclocycline HCl]: 0.146.
Turning to `CCCCCCCCCCCCCCCC(=O)OC[C@H](O)[C@H]1OC(=O)C(O)=C1O` [L-Ascorbyl 6-palmitate], the “KCl-induced FOS+/EGR-1+ double-positive nuclei fraction z-score” value was -0.888.
On to `Clc1ccc(C(c2c[nH]c3ccccc23)c2c[nH]c3ccccc23)cc1`, for which the “KCl-induced FOS+/EGR-1+ double-positive nuclei fraction z-score” value is -0.906.
In the case of `CC(C)(C)c1cc(C(=O)C(C#N)=NNc2cccc(Cl)c2)no1` it was 1.29.
In the case of `C[C@H]1CNCCCN1S(=O)(=O)c1cccc2cncc(F)c12` [Ripasudil (K-115) hydrochloride dihydrate] it was 0.257; in that of `Clc1ccc(C(Cn2ccnc2)OCc2csc3c(Cl)cccc23)c(Cl)c1` (configuration not stated) [Sertaconazole nitrate], -1.53.
In the case of `CN1CC[C@H](c2c(O)cc(O)c3c(=O)cc(-c4ccccc4Cl)oc23)[C@H](O)C1` [Flavopiridol HCl] it was -1.24; in that of `Cc1cc(F)c(Nc2ncnc3cc(OCc4ccccc4)ccc23)cc1O`, 0.0431.
As to `CCn1c(=O)c2c(nc(/C=C/c3ccc(OC)c(OC)c3)n2C)n(CC)c1=O` [Istradefylline], the “KCl-induced FOS+/EGR-1+ double-positive nuclei fraction z-score” value is 1.41.
Next, `O=S(=O)(O)c1cc(O)ccc1O` [Ethamsylate]: -0.17; `CCOc1ccc(NC(C)=O)cc1` [Phenacetin]: 2.05.
Next, `CC[C@H](C)n1cc(C)c2c(C(=O)NCc3c(C)cc(C)[nH]c3=O)cc(-c3ccc(N4CCNCC4)nc3)cc21`: 0.86.
Next, `CO[C@H]1C(=O)[C@]2(C)[C@@H](OC)C[C@H]3OC[C@@]3(OC(C)=O)[C@H]2[C@H](OC(=O)c2ccccc2)[C@]2(O)C[C@H](OC(=O)[C@H](O)[C@@H](NC(=O)OC(C)(C)C)c3ccccc3)C(C)=C1C2(C)C` [Cabazitaxel]: -0.195; `COC(=O)CCc1ccc(OCC(O)CNC(C)C)cc1` (configuration not stated) [Esmolol HCl]: -10.3.
As to `COCCOC(=O)C1=C(C)NC(C)=C(C(=O)OC(C)C)C1c1cccc([N+](=O)[O-])c1` (configuration not stated) [Nimodipine], the “KCl-induced FOS+/EGR-1+ double-positive nuclei fraction z-score” value is -1.28.
